Values quoted from earlier work as cited in US10213375B2, “Cosmetic or dermatological compositions combining cosmetiques retinaldehyde and glycylglycine oleamide and the cosmetic or dermatological uses thereof” (PIERRE FABRE DERMO-COSMETIQUE, priority 2013, dated 2019).
At least one structure is not confirmed: it was looked up by name or label, or the drawing left a doubt.

How the values were obtained:
[1] = system: epidermal retinoids; conditions: hairless mice; topical 0.05% for 7 days, then UVB 1 J/cm^2; assayed 24 h after radiation; cited from earlier work
[2] = cited from earlier work

Row | Structure (SMILES) | Prevention of photo-induced depletion of epidermal retinylic esters / retinoids [1] | Antioxidant potential compared with delta-tocopherol [2]
1 | CC1=C(/C=C/C(C)=C/C=C/C(C)=C/C(=O)O)C(C)(C)CCC1 [Retinoic acid, retinoic acid, reference compound] | prevents the photo-induced depletion of retinoids | 
2 | Cc1cc(O[C@@H]2O[C@H](CO)[C@@H](O)[C@H](O)[C@H]2O)cc2c1O[C@](C)(CCC[C@H](C)CCC[C@H](C)CCCC(C)C)CC2 [delta-tocopherol-glucopyranoside] |  | low antioxidant potential
